Publication PMC10969742, “A Phase I Study of the Oral Dual-Acting Pan-PI3K/mTOR Inhibitor Bimiralisib in Patients with Advanced Solid Tumors” (Cancers, 2024)
Where two headings read alike, the source gives them in different places.

System: patients with advanced solid tumors
Type: in vivo
Procedure: This was a Phase 1, open-label, multi-center, non-randomized, dose escalation study evaluating DLTs, tolerability, PK, and preliminary efficacy of bimiralisib in the treatment of patients with advanced solid tumors for which no standard curative or life-prolonging therapy is available. This study was conducted in the US (MD Anderson Cancer Center, Houston; Mayo Clinic Rochester; Roswell Park Comprehensive Cancer Center, Buffalo; University Hospitals of Cleveland), Spain (Vall Hebron University Hospital), Switzerland (Basel University Hospital), and UK (University College London Hospitals NHS Trust and Oxford Universities NHS Trust).
The primary objective of the study was to determine the MTD of bimiralisib administered according to three different dosing schedules. Bimiralisib was formulated as 20 mg and 80 mg capsules for oral administration. The first dosing schedule to be evaluated was continuous (once daily) dosing over a 21-day cycle. […] Patients enrolled in the continuous schedule and intermittent schedule A received a single lead-in dose, administered on […] prior to the start of the first 21-day treatment cycle, to characterize single-dose pharmacokinetics. Based on the previous first-in-human trial with bimiralisib, together with the expected toxicity profile of PI3K/mTOR inhibitors, the starting dose (dose-level 1) of bimiralisib in Study PQR309-003 was set at 80 mg daily.
Safety was monitored by physical examination, vital signs, weight, electrocardiogram, ECOG performance status, laboratory evaluations (including glucose monitoring), and patient self-reported mood questionnaires, as well as AEs. All AEs were coded with NCI Common Terminology Criteria for Adverse Events (CTCAE) v4.03 [27]. The MTD was defined as the maximum dose level at which ≤1/6 patients have DLTs. […] If the patient derived benefit from the treatment as determined by the investigator, treatment could be resumed at a lower dose in agreement with the study sponsor. […]
Descriptive statistics were used to present the data. […] Data were analyzed using SAS. […]

SMILES: Nc1cc(C(F)(F)F)c(-c2nc(N3CCOCC3)nc(N3CCOCC3)n2)cn1 [bimiralisib, 5-(4,6-Dimorpholino-1,3,5-triazin-2-yl)-4-(trifluoromethyl)pyridin-2-amine]
- Mean duration of treatment (and standard deviation) (80 mg continuous dosing): 57.2 ± 74.1 days
- Mean duration of treatment (and standard deviation) (140 mg intermittent schedule A): 72.7 ± 39.0 days
- Mean duration of treatment (and standard deviation) (140 mg intermittent schedule B): 82.7 ± 81.5 days
